Experimental data reported in US9234001B2, “Cysteine-free efficient Technetium (Tc) or Rhenium (Re) chelating peptide tags and their use” (Commissariat a L'Energie Atomique et aux Energies …, priority 2008, dated 2016).

test: [TcO]3+ labelling of peptides and proteins with protocol 2, labelling yield by HPLC; details: 99(m+g)Tc labelling, (1-R1/R2) with caffeine internal reference, UBI 29-41 and analogs

Row | Substance | Labelling Yield [%]
1 | SEQ ID NO: 2: analog of UBI 29-41, residue T1 replaced by an aminobutyric acid residue | 34
2 | SEQ ID NO: 4: analog of UBI 29-41, residue K5 replaced by a Norleucine residue | 86
3 | SEQ ID NO: 5: analog of UBI 29-41, Arginine 6 replaced by Norvaline | 87
4 | SEQ ID NO: 6: analog of UBI 29-41, R7 replaced by a Norvaline | 84
5 | SEQ ID NO: 7: analog of UBI 29-41, Methionine 8 replaced by Norleucine | 92
6 | SEQ ID NO: 8: analog of UBI 29-41, Q9 replaced by Amino butyric acid | 88
7 | SEQ ID NO: 10: analog of UBI 29-41, Asparagine 11 replaced by Amino butyric acid | 91
8 | SEQ ID NO: 11: analog of UBI 29-41, Arginine 12 replaced by Norvaline | 95
9 | SEQ ID NO: 12: analog of UBI 29-41, Arginine 13 replaced by Norvaline | 93
10 | TGRAKRRMQYNRR (Peptide Fragment; Free N-terminus; Free C-terminus) [SEQ ID NO: 13, non-acetylated version of UBI 29-41, free N-terminus, CO2 C-terminus] | >95

same assay, conditions: 99(m+g)Tc labelling, (1-R1/R2) with caffeine internal reference, UBI 29-41 and analogs, listed as 1

Row | Substance | Labelling Yield [%]
11 | TGRAKRRMQYNRR (N-acetyl, C-amide; UBI 29-41) [SEQ ID NO: 1, N-acetylated, C-amidated tridecamer, residue 29 to 41 of the protein Ubiquicidine, reference compound] | 79

same assay, conditions: 99(m+g)Tc labelling, (1-R1/R2) with caffeine internal reference, UBI 29-41 and analogs, listed as 3

Row | Substance | Labelling Yield [%]
12 | SEQ ID NO: 3: analog of UBI 29-41, Arginine 3 replaced by Norvaline | 78

same assay, conditions: 99(m+g)Tc labelling, (1-R1/R2) with caffeine internal reference, UBI 29-41 and analogs, listed as UBI 29-41

Row | Substance | Labelling Yield [%]
13 | TGRAKRRMQYNRR (N-acetyl, C-amide; UBI 29-41) [SEQ ID NO: 1, N-acetylated, C-amidated tridecamer, residue 29 to 41 of the protein Ubiquicidine, reference compound] | 79

same assay, conditions: 99(m+g)Tc labelling, UBI-29-41 fragments and their analogs

Row | Substance | Labelling Yield [%]
14 | AcRRRGT (retro-inverso D-amino acids, N-acetyl, C-amide; Peptide P15) | 75
15 | P5: Ac-T-G-R-A-K-R-Nva-NH2, residue R7 replaced by a Norvaline | 63
16 | TGRA (N-acetyl, C-amide; Peptide Fragment) [P1, Ac-TGRA-NH2] | 11
17 | TGRAAR (N-acetyl, C-amide; Peptide Fragment) [P7, Ac-TGRAAR-NH2] | 19
18 | TGRAKR (N-acetyl, C-amide; Peptide Fragment) [P3, Ac-TGRAKR-NH2] | 67
19 | TGRAKRR (N-acetyl, C-amide; Peptide Fragment) [P4, Ac-TGRAKRR-NH2] | 71
20 | TGRARR (N-acetyl, C-amide; Peptide Fragment) [P6, Ac-TGRARR-NH2] | 86
21 | TGRRR [P9] (N-acetyl, C-amide; Peptide Fragment) [Ac-TGRRR-NH2] | 68
22 | TGRRR [P14] (N-acetyl; Peptide Fragment; Free C-terminus) [Ac-TGRRR-CO2, free carboxyl terminal group] | 56
